Earlier results in patent US6673831B1, “Combination therapy for reducing the risks associated with cardiovascular disease” (Merck & Co., Inc., priority 1996, dated 2004).
For at least one compound, name, drawing or mass did not settle the structure.

Tested on: coronary heart disease
Details: over the course of the 5 year study

Structure (SMILES): CCC(C)(C)C(=O)O[C@H]1C[C@@H](C)C=C2C=C[C@H](C)[C@H](CC[C@@H]3C[C@@H](O)CC(=O)O3)[C@H]21 [simvastatin]
- treated patients left to die of their disease: 5%
